# Results taken from PubChem BioAssay AID1439 (NMMLSC, 2008).
# The chains behind the UniProt entries cited, without tags or fusion partners.
# UniProt P09471, whole entry, looked up: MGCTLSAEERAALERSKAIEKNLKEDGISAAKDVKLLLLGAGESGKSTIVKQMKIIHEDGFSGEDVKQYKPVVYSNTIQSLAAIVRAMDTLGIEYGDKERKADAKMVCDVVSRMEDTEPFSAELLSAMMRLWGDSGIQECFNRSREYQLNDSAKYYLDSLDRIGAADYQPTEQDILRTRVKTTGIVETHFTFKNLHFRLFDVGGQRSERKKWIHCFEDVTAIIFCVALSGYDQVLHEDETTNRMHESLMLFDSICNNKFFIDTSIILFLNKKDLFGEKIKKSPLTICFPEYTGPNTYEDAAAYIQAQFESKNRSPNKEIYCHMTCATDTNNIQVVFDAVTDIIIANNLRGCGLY
# The whole screen tested about 220,000 compounds, of which about 770 (0.35%) were called active. Inconclusive means that the source gave no clear call. Such entries were picked first, then a sample of the others. Rule as the data show it: active = binding response below about 49% or above about 150%; inconclusive = no clear call, values can overlap the other calls; inactive = in between.
# Target: Guanine nucleotide-binding protein G(o) subunit alpha (Homo sapiens) (UniProt P09471)
# Assay: RGS7-Galphao binding modulators, primary screen, biochemical, multiplexed bead flow cytometry (AID 1439);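 also: fluorescent Galphao held in activated GDP-AlF4 state binding bead-coupled RGS7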
# Settings: at 10 µM, actives lie on both sides
row,Compound,binding response (% of control)
1,CCc1ccc(/C=C2/C(=O)N(CC)C(=S)N2C)s1,active: 199% [activator]
2,CCOC(=O)CN1C(c2ccc(O)cc2)Nc2ccc(Br)cc2C1c1ccccc1 (centres undefined),inactive: 95.5%
3,O=C(NC(=S)NCCC1=CCCCC1)c1ccc(Br)o1,inconclusive: 88.8%
4,O=C1/C(=C\c2ccsc2)N2CCC1CC2,inconclusive: 80.1%
5,COc1cc(CO)ccc1Oc1nc2ccccc2n2cnnc12,inconclusive: 104%
6,NC(=O)C1CCN(C(=O)c2ccc(Oc3cc(Cl)cc(Cl)c3)o2)CC1,inconclusive: 8.44%
7,Cc1cc(C)nc(NS(=O)(=O)c2ccc(CC(C)C)cc2)c1,inconclusive: 129%
8,COc1ccc(-n2c(C)cc(C3=NNC(=NC4CC4)SC3)c2C)cc1,inconclusive: 103%
9,Cc1ccc(C)c(NC(=O)c2cc(-c3cccnc3)nc3ccccc23)c1,inconclusive: 64.5%
10,N=c1c2c(ncn1CCN1CCOCC1)Oc1cc(O)ccc1C2c1ccccc1 (centres undefined),inconclusive: 131%
11,CCN(CC)C(=O)C(C)OC(=O)COc1ccc(Cl)cc1Cl (centres undefined),inactive: 99.3%
12,CCOC(=O)c1c(N=CN(C)C)c2cc([N+](=O)[O-])cnc2n1C,inconclusive: 92.7%
13,CC(C)CN(C(=O)COC(=O)c1nc(Cl)ccc1Cl)C1CCS(=O)(=O)C1 (centres undefined),inconclusive: 109%
14,O=C(CSc1ccc(F)cc1)NC12CC3CC(CC(C3)C1)C2,inconclusive: 118%
15,Cc1nnsc1-c1c(C(=O)O)c(C)nn1-c1ccc(OC(F)(F)F)cc1,inconclusive: 95.8%
16,NC(=O)[C@H]1CC2(CC(c3cccc(NC(=O)COc4ccc(Cl)cc4)c3)=NO2)CN1C(=O)CC(c1ccccc1)c1ccccc1 (some centres undefined),inconclusive: 107%
17,Cc1cc(NC(=O)COc2ccc(Cl)cc2Cl)n(CCC#N)n1,inactive: 93.9%
18,COc1ccc(/C=N/n2c(-c3n[nH]c4c3CCC4)n[nH]c2=S)c(OC)c1OC,inconclusive: 190%
19,CCOc1ccc(C(=O)CCC(=O)NC(C)C(=O)OC)cc1 (centres undefined),inconclusive: 113%
20,COc1ccc(C2CC(=O)c3cc(OC)c(OC)cc32)cc1OC (centres undefined),inconclusive: 95.4%
21,Cc1ccc(/C=N/n2c(C)nc3ccccc3c2=O)o1,inconclusive: 95.6%
22,CC1Cc2ccccc2N1S(=O)(=O)c1ccc(Cl)nc1 (centres undefined),inconclusive: 120%
23,Cc1cc(=O)oc2cc(Oc3ncccc3[N+](=O)[O-])ccc12,inactive: 88.2%

row,Compound,binding response (% of control)
1,CC(C)(C)OC(=O)CNC(=O)c1[nH]cnc1C(=O)N[C@@H](Cc1ccccc1)C(=O)OC(C)(C)C,inconclusive: 105%
2,C/C(=N\NC(=O)C(=O)Nc1c(C)n(C)n(-c2ccccc2)c1=O)c1ccc(Cl)s1,inconclusive: 73.2%
3,Cc1ccc(C)c(N2CCN(C(=O)C3CCN(S(=O)(=O)c4c(C)noc4C)CC3)CC2)c1,inconclusive: -132%
4,COc1ccccc1N1CCN(C(=O)C2CCC(Cn3c(=S)[nH]c4ccccc4c3=O)CC2)CC1 (centres undefined),inactive: 101%
5,Cc1cc(C)cc(OCC(=O)O/N=C(\N)Cc2ccc([N+](=O)[O-])cc2)c1,inconclusive: 29.9%
6,Nc1cc(S(=O)(=O)c2ccc(O)c(N)c2)ccc1O,inconclusive: 92.9%
7,CC(C)Oc1ccc(C2CC(=O)N(c3cccc(Br)c3)C2=O)cc1 (centres undefined),inconclusive: 98.1%
8,COc1ccc(CN(C)CC(=O)NC2CCCc3ccccc32)cc1OC (centres undefined),inactive: 104%
9,O=c1c(-c2ccccc2)cnc2n1CCS2,inconclusive: 103%
10,Cc1ccc(S(=O)CCNC(=O)Cc2ccccc2)cc1 (centres undefined),inconclusive: 119%
11,Cc1ccc(C(=O)NC(=S)Nc2ccc(NC(=O)c3cccs3)cc2)cc1[N+](=O)[O-],inactive: 119%
12,COc1cc(OC)c2c(-c3ccccc3)cc(=O)oc2c1C(CC(=O)N1CCN(c2ccccc2)CC1)c1ccc2c(c1)OCO2 (centres undefined),inconclusive: 100%
13,O=C(O)c1ccc(Cl)c(S(=O)(=O)NC(Cc2ccccc2)C(=O)O)c1 (centres undefined),inconclusive: 109%
14,O=C1c2cccc(OCC(=O)N3CCCc4ccccc43)c2CCN1Cc1cccnc1,inconclusive: 84.3%
15,O=C(Nc1ccccc1)Nc1nccs1,inactive: 97.4%
16,COc1cc(S(=O)(=O)N(C)C2CCCCC2)c(C)cc1C,inconclusive: 90.4%
17,O=C1C(=O)N(CC2CCCO2)C(c2ccccc2[N+](=O)[O-])/C1=C(/O)c1ccccc1 (centres undefined),inactive: 99.2%
18,CC1=CC(C)(C)N2C(=O)C3(NCCc4c3[nH]c3ccccc43)c3cc(C)cc1c32 (centres undefined),inconclusive: 95.4%
19,Cc1nc(/N=C(\N)NC(=O)NC2CCCCC2)nc2ccccc12,inconclusive: 1.71%
20,Cc1nc2ccccn2c1C(=O)NN=C1CCN(C)CC1,inconclusive: 99.2%
21,CC(C)Sc1nnc(CNC(=O)C23CC4CC(CC(C4)C2)C3)n1C1CCCCC1,inactive: 106%
22,O=C(Nc1ccccc1)Nc1ccc2nnsc2c1,inconclusive: 64.9%
23,C/C(=N\NC(=O)CC1N=C(Cc2ccccc2)NNC1=O)c1ccncc1 (centres undefined),inconclusive: 125%

row,Compound,binding response (% of control)
1,Cc1cccc(OCC(=O)N(Cc2ccc(N(C)C)cc2)C2CCS(=O)(=O)C2)c1 (centres undefined),inconclusive: 102%
2,COc1ccc(-c2c(C#N)sc(C(N)=O)c2-c2ccc(OC)cc2)cc1,inconclusive: 139%
3,O=C(Cn1cncn1)N/N=C/c1ccncc1,inconclusive: 96%
4,O=C(NCc1ccc(C(F)(F)F)cc1)C1CC(c2ccccc2C(F)(F)F)=NO1 (centres undefined),inconclusive: 119%
5,CCCCCC(=O)NC(CC(=O)OC)c1ccc2c(c1)OCO2 (centres undefined),inconclusive: 113%
6,NC(=S)Nc1cccc(-c2n[nH]c(=S)o2)c1,inconclusive: 107%
7,CCCCOc1ncnc2c1[nH]c1ccc(C)cc12,inconclusive: 102%
8,COc1cccc(NC(=O)CNC(=O)c2ccc([N+](=O)[O-])cc2)c1,inconclusive: 91.2%
9,CCCn1c(O)c(N=NC(=O)c2cccnc2)c2cc(Br)ccc21,inconclusive: 102%
10,CCN(CC)S(=O)(=O)c1ccc(Cl)c(C(=O)Oc2cccc(-c3cnc4ccccc4n3)c2)c1,inactive: 99.2%
11,CC(=O)N1C(=O)N(C)C2C1N(C(C)=O)C(=O)N2C (centres undefined),inactive: 101%
12,CCN(CC)C(=O)COc1ccc(/C(C)=N/NC(=O)c2ccccc2O)cc1,inconclusive: 108%
13,N=c1c2c(ncn1CCCO)Oc1ccc3ccccc3c1C2c1ccccc1 (centres undefined),inconclusive: 97%
14,COc1cc(OC)c2ccc(=O)oc2c1C(CCN1CCCC(C)C1)c1ccc(N(C)C)cc1 (centres undefined),inconclusive: 116%
15,O=C(CSc1nnc(-c2ccco2)o1)c1ccc[nH]1,inactive: 92.9%
16,CCc1nnc(NC(=O)c2ccncc2)s1,inactive: 93.4%
17,O=C(NNC(=O)c1cc(C(F)(F)F)cc(C(F)(F)F)c1)c1ccc(Cl)cc1,inconclusive: 105%
18,O=C(Nc1ccccc1Cl)N1CCSc2ccccc21,inconclusive: 106%
19,CC(=O)Nc1ccc(NC(=O)C2CCCN2C(=O)Nc2ccc(F)c([N+](=O)[O-])c2)cc1 (centres undefined),inconclusive: 107%
20,C/C(=N\NC(=O)c1ccccn1)c1ccc(C(=O)O)s1,inactive: 109%
21,OCCN1CCN(CC(O)C(F)(F)F)CC1 (centres undefined),inactive: 86.5%
22,CN1CCC(N(C)C(=O)CCc2nc3ccccc3n2-c2ccccc2)CC1,inactive: 96.5%
23,Cc1ccc(-n2c(SCC(=O)NCc3ccco3)nc3c([nH]c4ccccc43)c2=O)cc1,active: -10.8%

row,Compound,binding response (% of control)
1,C/C(=N\Nc1ccc(Cl)c(C(=O)O)c1)c1cccs1,inconclusive: 103%
2,Cc1cc2cc(CN(C(=O)C3CC3)C3CCCC3)c3nnnn3c2cc1C,inactive: 137%
3,Cc1ccc(C(CC(=O)NCCCN(C)C)c2ccc(OC(C)C)cc2)cc1 (centres undefined),inconclusive: -49.8%
4,CCOC(=O)c1nnc2cc(C)nn2c1C,inconclusive: 114%
5,O=C1CCN(Cc2ccccc2)C(=O)N1c1ccccc1,inconclusive: 85%
6,CC(C)(C)C(=O)NC(=S)Nc1ccccn1,inconclusive: 103%
7,CCCCC1=NN2CCS(=O)(=O)N=C2S1,inconclusive: 97.7%
8,COC(=O)c1sc2nc(C)nc(SCC(=O)C(C)(C)C)c2c1C,inactive: 105%
9,CC(=O)O[C@@H]1[C@H]2[C@@H](C[C@@H](C)[C@@H]3CCC(=O)[C@@]13C)OC(=O)[C@@H]2C,inconclusive: 108%
10,CCN(CC)S(=O)(=O)c1ccc(C(=O)NNC(=O)C2CCN(S(=O)(=O)c3ccc(Cl)cc3)CC2)cc1,inactive: 102%
11,O=C(O)CNC(=O)c1cccc(C(F)(F)F)c1,inconclusive: 109%
12,O=C(Nc1ccc(Br)cc1)C1OCCc2ccccc21 (centres undefined),inconclusive: 84.9%
13,CC(C)CCNC(=O)c1ccc(Cl)c(NC(=O)c2ccccc2F)c1,inactive: 108%
14,Cc1cc(/C=N/NC(=O)C(O)(c2ccccc2)c2ccccc2)c(C)n1-c1cccc(C(=O)O)c1,inconclusive: 119%
15,CCOc1ccc(N2C(=O)CC(Sc3ccccc3C(=O)O)C2=O)c([N+](=O)[O-])c1 (centres undefined),inconclusive: 116%
16,CCCCSc1ccc(NC(=O)c2cccnc2)cc1,inactive: 101%
17,O=C(NCC1CCCO1)c1ccc(COc2ccccc2Br)cc1 (centres undefined),inactive: 96%
18,O=C(CCCCC(=O)N1CCOCCOCCOCC1)OCc1ccccc1,inconclusive: 79.3%
19,O=C(NCCc1c[nH]c2ccccc12)/C(=C\c1cccnc1)NC(=O)c1ccccc1Br,inconclusive: 88.9%
20,COC(=O)C1=C(C(=O)OC)[C@@H]2N(C)c3ccc(OC)cc3[C@@]23C[C@@H](C(=O)OC)N(C(=O)C2CCC2)C3=N1,inconclusive: 126%

# For reference, 20 of the compounds above.
row,Compound,binding response (% of control)
23,Cc1ccc(-n2c(SCC(=O)NCc3ccco3)nc3c([nH]c4ccccc43)c2=O)cc1,active: -10.8%
1,C/C(=N\Nc1ccc(Cl)c(C(=O)O)c1)c1cccs1,inconclusive: 103%
2,Cc1cc2cc(CN(C(=O)C3CC3)C3CCCC3)c3nnnn3c2cc1C,inactive: 137%
3,Cc1ccc(C(CC(=O)NCCCN(C)C)c2ccc(OC(C)C)cc2)cc1 (centres undefined),inconclusive: -49.8%
4,CCOC(=O)c1nnc2cc(C)nn2c1C,inconclusive: 114%
5,O=C1CCN(Cc2ccccc2)C(=O)N1c1ccccc1,inconclusive: 85%
6,CC(C)(C)C(=O)NC(=S)Nc1ccccn1,inconclusive: 103%
7,CCCCC1=NN2CCS(=O)(=O)N=C2S1,inconclusive: 97.7%
8,COC(=O)c1sc2nc(C)nc(SCC(=O)C(C)(C)C)c2c1C,inactive: 105%
9,CC(=O)O[C@@H]1[C@H]2[C@@H](C[C@@H](C)[C@@H]3CCC(=O)[C@@]13C)OC(=O)[C@@H]2C,inconclusive: 108%
10,CCN(CC)S(=O)(=O)c1ccc(C(=O)NNC(=O)C2CCN(S(=O)(=O)c3ccc(Cl)cc3)CC2)cc1,inactive: 102%
11,O=C(O)CNC(=O)c1cccc(C(F)(F)F)c1,inconclusive: 109%
12,O=C(Nc1ccc(Br)cc1)C1OCCc2ccccc21 (centres undefined),inconclusive: 84.9%
13,CC(C)CCNC(=O)c1ccc(Cl)c(NC(=O)c2ccccc2F)c1,inactive: 108%
14,Cc1cc(/C=N/NC(=O)C(O)(c2ccccc2)c2ccccc2)c(C)n1-c1cccc(C(=O)O)c1,inconclusive: 119%
15,CCOc1ccc(N2C(=O)CC(Sc3ccccc3C(=O)O)C2=O)c([N+](=O)[O-])c1 (centres undefined),inconclusive: 116%
16,CCCCSc1ccc(NC(=O)c2cccnc2)cc1,inactive: 101%
17,O=C(NCC1CCCO1)c1ccc(COc2ccccc2Br)cc1 (centres undefined),inactive: 96%
18,O=C(CCCCC(=O)N1CCOCCOCCOCC1)OCc1ccccc1,inconclusive: 79.3%
19,O=C(NCCc1c[nH]c2ccccc12)/C(=C\c1cccnc1)NC(=O)c1ccccc1Br,inconclusive: 88.9%
